Test results as given in patent publication US8247533B2 (The United States of America, as represented by the …, priority 2007, dated 2012).

How the values were obtained:
[1] = general procedure: Boc solid-phase peptide synthesis; 4-sulfamylbutyryl AM resin (alkanesulfonamide safety-catch linker); HATU/DIEA; conditions: whole synthesis
[2] = general procedure: Boc solid-phase peptide synthesis; 4-sulfamylbutyryl AM resin; HATU/DIEA; conditions: whole synthesis

Substance	isolated mass [1] [mg]	final purity (method not given) ([1]; 1D 1H NMR, scale of the general procedure 0.36 mmol)	isolated yield ([1]; based on Fmoc-aminoacyl resin 2, scale of the general procedure 0.36 mmol) [%]	difficulty met ([1]; scale of the general procedure 0.36 mmol)	crude mass ([2]; scale 0.36 mmol) [mg]	isolated yield ([1]; based on Fmoc-aminoacyl resin, scale of the general procedure 0.36 mmol) [%]	isolated mass ([2]; scale 0.5 mmol) [mg]
HELM PEPTIDE1{V.[dP].G.V.[dV].V.[dV].V.[dV].V.[dV].V.[dP].G.V.[dV].V.[dV].V.[dV].V.[dV]}$PEPTIDE1,PEPTIDE1,1:R1-22:R2$$$V2.0 (SMILES CC(C)[C@@H]1NC(=O)CNC(=O)[C@H]2CCCN2C(=O)[C@H](C(C)C)NC(=O)[C@@H](C(C)C)NC(=O)[C@H](C(C)C)NC(=O)[C@@H](C(C)C)NC(=O)[C@H](C(C)C)NC(=O)[C@@H](C(C)C)NC(=O)[C@H](C(C)C)NC(=O)[C@@H](C(C)C)NC(=O)[C@H](C(C)C)NC(=O)CNC(=O)[C@H]2CCCN2C(=O)[C@H](C(C)C)NC(=O)[C@@H](C(C)C)NC(=O)[C@H](C(C)C)NC(=O)[C@@H](C(C)C)NC(=O)[C@H](C(C)C)NC(=O)[C@@H](C(C)C)NC(=O)[C@H](C(C)C)NC(=O)[C@@H](C(C)C)NC1=O)	170	≧95%	23	repeated chromatography on a C4, C8, or C18 column failed to completely remove the putative epimerized material	431		
cyclo{[(D-Leu-L-Leu)4-(D-Leu-L-Pro-Gly)]2-						23	245

HELM strings list residues between dots; [ac] is acetyl, [am] amide, other brackets name non-standard units.
